No constants are given. Whether binding was seen depends on the method and setting. In cells and extracts the contact can be indirect. Some results given as binding are weak or reduced against the parent protein; the word gives no strength. Where a sequence is shown, tags or fusion partners need not be part of it.

Amino acid sequences for entries named in this document (tags omitted).
UniProt P35222: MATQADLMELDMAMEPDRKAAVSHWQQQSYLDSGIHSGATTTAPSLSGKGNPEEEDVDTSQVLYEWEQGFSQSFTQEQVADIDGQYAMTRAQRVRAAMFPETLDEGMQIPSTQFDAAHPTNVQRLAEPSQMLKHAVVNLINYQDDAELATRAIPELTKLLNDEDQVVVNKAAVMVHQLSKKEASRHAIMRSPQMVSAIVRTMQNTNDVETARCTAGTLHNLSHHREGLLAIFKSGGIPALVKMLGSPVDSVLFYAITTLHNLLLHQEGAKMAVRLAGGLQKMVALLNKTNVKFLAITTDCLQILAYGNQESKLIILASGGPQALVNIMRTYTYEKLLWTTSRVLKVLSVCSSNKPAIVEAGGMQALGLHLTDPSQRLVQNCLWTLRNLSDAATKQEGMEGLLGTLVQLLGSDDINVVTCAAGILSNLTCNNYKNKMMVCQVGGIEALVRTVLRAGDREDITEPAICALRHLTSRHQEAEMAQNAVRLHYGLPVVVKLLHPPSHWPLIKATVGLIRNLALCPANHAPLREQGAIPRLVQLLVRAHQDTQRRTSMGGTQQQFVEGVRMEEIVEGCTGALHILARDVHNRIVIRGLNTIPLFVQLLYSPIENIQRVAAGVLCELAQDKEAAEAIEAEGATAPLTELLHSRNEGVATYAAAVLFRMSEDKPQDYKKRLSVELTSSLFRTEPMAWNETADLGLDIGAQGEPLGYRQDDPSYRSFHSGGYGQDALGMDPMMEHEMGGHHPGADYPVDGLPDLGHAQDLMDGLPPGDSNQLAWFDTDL

In experiment [1] the target is T1, GFP-ABDN2 (N-terminal nesprin-2 fragment, amino acids 1-531) (UniProt Q8WXH0).
T1 sequence: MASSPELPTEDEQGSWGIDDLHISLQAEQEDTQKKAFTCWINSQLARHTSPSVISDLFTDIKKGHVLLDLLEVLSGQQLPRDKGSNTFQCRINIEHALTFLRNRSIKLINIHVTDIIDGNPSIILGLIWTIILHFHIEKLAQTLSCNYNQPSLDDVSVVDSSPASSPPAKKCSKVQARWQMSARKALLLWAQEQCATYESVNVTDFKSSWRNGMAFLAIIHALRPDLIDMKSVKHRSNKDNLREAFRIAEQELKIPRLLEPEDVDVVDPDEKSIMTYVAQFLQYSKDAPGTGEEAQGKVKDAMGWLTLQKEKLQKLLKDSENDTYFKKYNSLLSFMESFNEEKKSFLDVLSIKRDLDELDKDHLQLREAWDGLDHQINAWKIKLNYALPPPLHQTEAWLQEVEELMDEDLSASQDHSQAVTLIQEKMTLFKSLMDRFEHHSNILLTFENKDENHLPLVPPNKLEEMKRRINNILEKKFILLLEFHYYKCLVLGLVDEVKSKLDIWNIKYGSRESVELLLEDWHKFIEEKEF
The experiment can be described thus: co-IP; U2OS cells transfected with GFP or GFP-ABDN2 overnight; GFP precipitated with anti-GFP coated Sepharose beads, 2 h at 4 °C; washed three times in IP buffer; Western blot for β-catenin.

Experiment [2] addresses T2, GST-SR 1-3 (nesprin-2 spectrin repeats 1-3, amino acids 279-531) (UniProt Q8WXH0).
T2 sequence: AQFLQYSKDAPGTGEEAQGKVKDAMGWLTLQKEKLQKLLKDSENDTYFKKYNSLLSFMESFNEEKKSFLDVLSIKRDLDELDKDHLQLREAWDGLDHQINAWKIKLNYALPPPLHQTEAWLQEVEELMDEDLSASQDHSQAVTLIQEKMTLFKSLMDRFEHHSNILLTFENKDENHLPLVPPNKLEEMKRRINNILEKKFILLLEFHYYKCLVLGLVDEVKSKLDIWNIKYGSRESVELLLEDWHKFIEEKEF
The experiment can be described thus: pull-down; GST alone or GST-SR 1-3 as bait; Western blot for β-catenin; GST loading by Coomassie stain; method as described previously (ref. 14); only the target purified. In general terms: Immunoblotting shows a protein as a band on a membrane.

Experiment [3] has as its target β-catenin (human (endogenous in U2OS)) (UniProt P35222). The experiment in a line: co-IP; β-catenin IP from U2OS cells transfected with GFP-ABDN2; Western blot.

For β-catenin (from UniProt P35222 1-781), the binding entry in experiment [1] and in experiment [2] was “binds” in each case.

B1: GFP-ABDN2 (N-terminal nesprin-2 fragment, amino acids 1-531) (domain or fragment, UniProt Q8WXH0 1-531)
chain: MASSPELPTEDEQGSWGIDDLHISLQAEQEDTQKKAFTCWINSQLARHTSPSVISDLFTDIKKGHVLLDLLEVLSGQQLPRDKGSNTFQCRINIEHALTFLRNRSIKLINIHVTDIIDGNPSIILGLIWTIILHFHIEKLAQTLSCNYNQPSLDDVSVVDSSPASSPPAKKCSKVQARWQMSARKALLLWAQEQCATYESVNVTDFKSSWRNGMAFLAIIHALRPDLIDMKSVKHRSNKDNLREAFRIAEQELKIPRLLEPEDVDVVDPDEKSIMTYVAQFLQYSKDAPGTGEEAQGKVKDAMGWLTLQKEKLQKLLKDSENDTYFKKYNSLLSFMESFNEEKKSFLDVLSIKRDLDELDKDHLQLREAWDGLDHQINAWKIKLNYALPPPLHQTEAWLQEVEELMDEDLSASQDHSQAVTLIQEKMTLFKSLMDRFEHHSNILLTFENKDENHLPLVPPNKLEEMKRRINNILEKKFILLLEFHYYKCLVLGLVDEVKSKLDIWNIKYGSRESVELLLEDWHKFIEEKEF
Take B1: the binding entry in experiment [3] was “binds”.

Values taken from publication PMC4948682.
